The values below come from PMC7255015.

For assay [1], the target named is T1, Flag-tagged CD82 (wild type) (human) (UniProt P27701).
T1 sequence (chain, N-glycosylated at Asn129, Asn157 and Asn198): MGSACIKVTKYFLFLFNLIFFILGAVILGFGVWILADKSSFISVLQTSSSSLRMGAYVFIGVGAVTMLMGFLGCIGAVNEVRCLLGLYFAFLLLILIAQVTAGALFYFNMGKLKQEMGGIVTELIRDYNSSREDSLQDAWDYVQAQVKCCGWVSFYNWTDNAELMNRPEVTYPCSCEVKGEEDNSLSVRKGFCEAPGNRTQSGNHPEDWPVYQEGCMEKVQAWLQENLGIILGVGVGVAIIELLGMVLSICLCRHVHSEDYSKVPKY
Put plainly: co-IP; anti-Flag antibody and G-agarose beads overnight, lysates of stable ES2 cells in IP buffer (50 mM Tris-HCl pH 7.4, 150 mM NaCl, 0.1% NP-40, 5 mM EDTA); western blot of the precipitate.

Assay [2] has as its target T2, Flag-tagged CD82 N198Q glycosylation deficient mutant (human) (UniProt P27701).
T2 sequence (chain, glycosylation site Asn198 removed): T1 sequence (chain, N-glycosylated at Asn129, Asn157 and Asn198) with N198Q
The assay is described as above.

Substitutions are numbered along the chain they refer to. These are yes or no findings as the source states them, for the method shown. Binding seen in cells or lysates may run through a third protein. Binding calls can cover weak binding; strength is not graded here. Where a sequence is shown, tags or fusion partners need not be part of it.

As for “integrin α5 (human (endogenous in ES2)) (receptor)”, the binding entry in assay [1] and in assay [2] was “binds” in each case.
